Columns and labels:
[1] = test system: open-chest, barbital-anesthetized dogs; assay: Protocol II (preconditioning): four 5-minute occlusion/reperfusion cycles before 60-minute occlusion and 3 hours reperfusion in dogs; format: in vivo, dog
Protocol: Preconditioning was elicited by four 5-minute occlusion/5-minute reperfusion cycles produced 10 minutes before the 60-minute occlusion.

[2] = test system: open-chest, barbital-anesthetized dogs; assay: Protocol I (pretreatment): 60 minutes of coronary artery occlusion and 3 hours of reperfusion in dogs

| SMILES | Regional myocardial blood flow, ischemic-reperfused region, endo (endocardium) ([1]; occ30) | Regional myocardial blood flow, ischemic-reperfused region, epi (epicardium) ([1]; occ30) | Regional myocardial blood flow, ischemic-reperfused region, mid (midmyocardium) ([1]; occ30) | Regional myocardial blood flow, ischemic-reperfused region, transmural ([1]; occ30) | Regional myocardial blood flow, non-ischemic region, endo (endocardium) ([1]; occ30) | Regional myocardial blood flow, non-ischemic region, epi (epicardium) ([1]; occ30) | Regional myocardial blood flow, non-ischemic region, mid (midmyocardium) ([1]; occ30) | Regional myocardial blood flow, non-ischemic region, transmural ([1]; occ30) | Regional myocardial blood flow, ischemic-reperfused region, endo (endocardium) ([1]; rep3 hr) | Regional myocardial blood flow, ischemic-reperfused region, epi (epicardium) ([1]; rep3 hr) | Regional myocardial blood flow, ischemic-reperfused region, mid (midmyocardium) ([1]; rep3 hr) | Regional myocardial blood flow, ischemic-reperfused region, transmural ([1]; rep3 hr) | Regional myocardial blood flow, non-ischemic region, endo (endocardium) ([1]; rep3 hr) | Regional myocardial blood flow, non-ischemic region, epi (epicardium) ([1]; rep3 hr) | Regional myocardial blood flow, non-ischemic region, mid (midmyocardium) ([1]; rep3 hr) | Regional myocardial blood flow, non-ischemic region, transmural ([1]; rep3 hr) | other results |
| --- | --- | --- | --- | --- | --- | --- | --- | --- | --- | --- | --- | --- | --- | --- | --- | --- | --- |
| CCCn1c(=O)c2[nH]c([C@H]3C[C@@H]4C[C@H]3[C@H]3O[C@@H]43)nc2n(CCC)c1=O [BG 9719, 8-(2S-5,6-exo-epoxy-endo-norborn-2-yl)-1,3-dipropyl-3,7-dihydro-purine-2,6-dione] | 0.06 ± 0.01 ml/min/gm | 0.14 ± 0.04 ml/min/gm | 0.08 ± 0.02 ml/min/gm | 0.09 ± 0.02 ml/min/gm | 0.86 ± 0.16 ml/min/gm | 0.91 ± 0.22 ml/min/gm | 0.92 ± 0.14 ml/min/gm | 0.90 ± 0.13 ml/min/gm | 0.64 ± 0.10 ml/min/gm | 0.63 ± 0.12 ml/min/gm | 0.43 ± 0.04 ml/min/gm | 0.56 ± 0.10 ml/min/gm | 0.88 ± 0.20 ml/min/gm | 0.83 ± 0.13 ml/min/gm | 0.87 ± 0.11 ml/min/gm | 0.86 ± 0.12 ml/min/gm | – |
| CCCn1c(=O)c2[nH]c(C3CCCC3)nc2n(CCC)c1=O [CPX, 8-Cyclopentyl-1,3-dipropyl-3,7-dihydro-purine-2,6-dione] | 0.04 ± 0.01 ml/min/gm | 0.07 ± 0.03 ml/min/gm | 0.05 ± 0.01 ml/min/gm | 0.06 ± 0.02 ml/min/gm | 0.73 ± 0.22 ml/min/gm | 0.97 ± 0.20 ml/min/gm | 0.78 ± 0.12 ml/min/gm | 0.83 ± 0.20 ml/min/gm | 0.68 ± 0.12 ml/min/gm | 0.62 ± 0.12 ml/min/gm | 0.54 ± 0.11 ml/min/gm | 0.61 ± 0.10 ml/min/gm | 0.81 ± 0.15 ml/min/gm | 0.85 ± 0.12 ml/min/gm | 0.76 ± 0.12 ml/min/gm | 0.81 ± 0.13 ml/min/gm | Regional myocardial blood flow, ischemic-reperfused region, endo (endocardium) ([2]; occ30): 0.05 ± 0.01 ml/min/gm; Regional myocardial blood flow, ischemic-reperfused region, epi (epicardium) ([2]; occ30): 0.15 ± 0.04 ml/min/gm; Regional myocardial blood flow, ischemic-reperfused region, mid (midmyocardium) ([2]; occ30): 0.08 ± 0.02 ml/min/gm; Regional myocardial blood flow, ischemic-reperfused region, transmural ([2]; occ30): 0.09 ± 0.02 ml/min/gm; Regional myocardial blood flow, non-ischemic region, endo (endocardium) ([2]; occ30): 0.54 ± 0.04 ml/min/gm; Regional myocardial blood flow, non-ischemic region, epi (epicardium) ([2]; occ30): 0.60 ± 0.08 ml/min/gm; Regional myocardial blood flow, non-ischemic region, mid (midmyocardium) ([2]; occ30): 0.66 ± 0.08 ml/min/gm; Regional myocardial blood flow, non-ischemic region, transmural ([2]; occ30): 0.60 ± 0.06 ml/min/gm; Regional myocardial blood flow, ischemic-reperfused region, endo (endocardium) ([2]; rep3 hr): 0.90 ± 0.16 ml/min/gm; Regional myocardial blood flow, ischemic-reperfused region, epi (epicardium) ([2]; rep3 hr): 0.48 ± 0.06 ml/min/gm; Regional myocardial blood flow, ischemic-reperfused region, mid (midmyocardium) ([2]; rep3 hr): 0.49 ± 0.04 ml/min/gm; Regional myocardial blood flow, ischemic-reperfused region, transmural ([2]; rep3 hr): 0.62 ± 0.06 ml/min/gm; Regional myocardial blood flow, non-ischemic region, endo (endocardium) ([2]; rep3 hr): 0.61 ± 0.06 ml/min/gm; Regional myocardial blood flow, non-ischemic region, epi (epicardium) ([2]; rep3 hr): 0.66 ± 0.07 ml/min/gm; Regional myocardial blood flow, non-ischemic region, mid (midmyocardium) ([2]; rep3 hr): 0.64 ± 0.07 ml/min/gm; Regional myocardial blood flow, non-ischemic region, transmural ([2]; rep3 hr): 0.64 ± 0.06 ml/min/gm |
| CCCn1c(=O)c2[nH]c(C34CCC(CCC(=O)O)(CC3)CC4)nc2n(CCC)c1=O [BG 9928, 3-[4-(2,6-dioxo-1,3-dipropyl-2,3,6,7-tetrahydro-1H-purin-8-yl)-bicyclo[2.2.2]oct-1-yl]-propionic acid] | 0.03 ± 0.01 ml/min/gm | 0.12 ± 0.04 ml/min/gm | 0.06 ± 0.01 ml/min/gm | 0.07 ± 0.01 ml/min/gm | 0.51 ± 0.12 ml/min/gm | 0.48 ± 0.14 ml/min/gm | 0.49 ± 0.14 ml/min/gm | 0.49 ± 0.13 ml/min/gm | 0.72 ± 0.30 ml/min/gm | 0.45 ± 0.13 ml/min/gm | 0.31 ± 0.10 ml/min/gm | 0.49 ± 0.14 ml/min/gm | 0.56 ± 0.14 ml/min/gm | 0.45 ± 0.06 ml/min/gm | 0.47 ± 0.12 ml/min/gm | 0.50 ± 0.13 ml/min/gm | – |
